Results are given in words; binding and its absence hold for the method and conditions named. Binding seen in cells or lysates may run through a third protein. Some binding calls cover weakened binding; strength is not graded here. Where a sequence is shown, tags or fusion partners need not be part of it.
What was measured:
[1] = biological target: T1, Flag-C2CD4A (C2 calcium dependent domain containing 4A), expressed in 293T cells (human) (UniProt Q8NCU7); assay: co-IP; 293 T cells co-transfected with Flag-C2CD4A and HA-p53; immunoprecipitated with anti-Flag or anti-HA antibody; western blot
T1 sequence: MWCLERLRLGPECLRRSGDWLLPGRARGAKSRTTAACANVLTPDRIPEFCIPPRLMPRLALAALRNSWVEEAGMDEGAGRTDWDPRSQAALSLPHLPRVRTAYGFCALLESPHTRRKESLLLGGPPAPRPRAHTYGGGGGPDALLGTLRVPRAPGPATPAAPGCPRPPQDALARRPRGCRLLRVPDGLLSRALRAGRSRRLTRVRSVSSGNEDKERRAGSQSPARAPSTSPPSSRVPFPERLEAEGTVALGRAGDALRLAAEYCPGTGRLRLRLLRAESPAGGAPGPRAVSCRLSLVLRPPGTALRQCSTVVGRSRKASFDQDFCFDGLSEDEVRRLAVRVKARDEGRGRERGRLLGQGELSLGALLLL

[2] = biological target: T2, Flag-C2CD4A (C2 calcium dependent domain containing 4A), expressed in RKO cells (human) (UniProt Q8NCU7); assay: co-IP; lysates of RKO cells transfected with Flag-C2CD4A; immunoprecipitated with anti-IgG, anti-Flag or anti-p53 antibodies, Protein A+G agarose beads; western blot
T2 sequence: T1 sequence

| binding [1] | binding [2] | Substance |
| --- | --- | --- |
| binds | – | HA-p53 (from UniProt P04637 1-393) |
| – | binds | p53 in RKO cells (from UniProt P04637 1-393) |

— article PMC8520208
